No signal at the amounts used counts as a negative. For some of these results: Protein sequences can lack the tags named with them. The exact form of at least one protein or probe is not confirmed. For some of these results: A weaker result is weaker than the reference pair of the same experiment. For some of these results: At least one verdict was read from the data and is not stated in words by the source.
Molecular target: Trx (thioredoxin tag alone) (UniProt P0AA25)
Experiment: EMSA
Conditions: EMSA: 1 ug protein, 50 fmol probe in 10 ul; 10 mM HEPES pH 7.9, 40 mM KCl, 1 mM EDTA, 1 mM DTT, 50 ng herring sperm DNA, 15 ug BSA, 10% glycerol, 1 h on ice; recombinant protein; label: 32P

Sequence | binding result
ACGTGGCGGTTACCGCCGATCACATGCCCAAGGCCG / ACATCGGCCTTGGGCATGTGATCGGCGGTAACCGCC [5U-ZmPEPC1-1] | no binding

Molecular target: T1, Trx::ZmOrphan94 (Zea mays B73) (UniProt C0P6E9)
T1 sequence (looked up): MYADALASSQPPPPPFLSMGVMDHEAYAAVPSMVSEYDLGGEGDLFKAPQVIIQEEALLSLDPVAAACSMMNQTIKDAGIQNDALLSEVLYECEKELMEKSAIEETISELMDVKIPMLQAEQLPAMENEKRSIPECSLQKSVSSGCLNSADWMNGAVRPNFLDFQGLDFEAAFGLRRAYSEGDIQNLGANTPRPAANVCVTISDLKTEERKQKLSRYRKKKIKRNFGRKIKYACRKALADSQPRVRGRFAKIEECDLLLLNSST
Experiment: EMSA
Conditions: EMSA: 1 ug protein, 50 fmol probe in 10 ul; 10 mM HEPES pH 7.9, 40 mM KCl, 1 mM EDTA, 1 mM DTT, 50 ng herring sperm DNA, 15 ug BSA, 10% glycerol, 1 h on ice; recombinant protein; residues 1-264; protein details: N-terminal Trx (pET32a); label: 32P

Sequence | binding result
ACGTGACCCGTGTATAGCCATATATATACCCGCCCG / ATCACGGGCGGGTATATATATGGCTATACACGGGTC [5U-ZmPEPC1-m3.3] | binds more weakly
ACGTGTCCCGTGTATAGCTATACACACACCCGCCCG / ATCACGGGCGGGTGTGTGTATAGCTATACACGGGAC [5U-ZmPEPC1-m3.2] | binds more weakly
ACGTGCGAGGGCCGCCCGTTCCCGTGTATAGCCACG / ATCACGTGGCTATACACGGGAACGGGCGGCCCTCGC [5U-ZmPEPC1-m2.1] | binds more weakly
ACGTGTCCCGTGCACAGCTATACACACACCCGCCCG / ATCACGGGCGGGTGTGTGTATAGCTGTGCACGGGAC [5U-ZmPEPC1-m3.1] | binds more weakly
ACGTGGCCAAGCCAAAAAGGAGCCTCAGCCGCAGCG / ACATCGCTGCGGCTGAGGCTCCTTTTTGGCTTGGCC [5U-ZmPEPC1-0] | no binding
ACGTGGCGGTTACCGCCGATTATATGCCCAAGGCCG / ACATCGGCCTTGGGCATATAATCGGCGGTAACCGCC [5U-ZmPEPC1-m1.1] | binds more weakly

— article PMC8062929
